Results published in article PMC2982846.
These are yes or no findings as the source states them, for the method shown. Binding seen in cells or lysates may run through a third protein. Some results given as binding are weak or reduced against the parent protein; the word gives no strength.

Key:
[1] = target: Aβ-precursor protein (APP), wild type, from APP^wt/wt mouse brain (mouse (endogenous in mouse brain)) (UniProt P12023); assay: co-IP; IP with monoclonal anti-APP from membrane enriched mouse brain fraction (500 ug membrane protein; IP buffer 20 mM Hepes pH 8.0, 10% glycerol, 137 mM NaCl, 0.5% Triton-X-100, 2 mM EDTA; protein A/G, overnight), blot for Fe65; APP^wt/wt, APP^YG/YG and APP^-/- mice
[2] = target: APP Y682G, from APP^YG/YG knock-in mouse brain (mouse (endogenous in mouse brain)) (UniProt P12023); assay: as above

binding [1]: binds | binding [2]: no binding
B1: Fe65 (protein, UniProt Q9QXJ1 1-710)
chain: MSVPSSLSQSAINANSHGGPALSFPLPLHAAHNQLLNAKLQATAVVPKDLRSAMGEGSVPEPGPANAKWLKEGQNQLRRAATAHRDQNRNVTLTLAEEASQEAETAPLGPKGLMHLYSELELSAHNAANRGLHGSALIINTQEQGPDEGEEKAAGEAEEDDEDEEEEEEEEDLSSPPGLPEPLENVEVPSGPQALTDGPREHSKSASLLFGMRNSAASDEDSSWATLSQGSPSYGSPEDTDSFWNPNAFETDSDLPAGWMRVQDTSGTYYWHIPTGTTQWEPPGRASPSQGSSPQEESQLTWTGFAHQEGFEEGEFWKDEPSEEAPMELGLKDPEEATLSFPAQSLSPEPVPQEEEKLSQRNANPGIKCFAVRSLGWVEMTEEELAPGRSSVAVNNCIRQLSYHKNNLHDPMAGGWGEGKDLLLQLEDETLKLVEPQNQTLLHAQPIVSIRVWGVGRDSGSNRDFAYVARDKLTQMLKCHVFRCEAPAKNIATSLHEICSKIMSERRNARCLVNGLSLDHSKLVDVPFQVEFPAPKNELVQKFQVYYLGNVPVAKPVGVDVINGALESVLSSSSREQWTPSHVSVAPATLTILHQQTEAVLGECRVRFLSFLAVGRDVHTFAFIMAAGPASFCCHMFWCEPNAASLSEAVQAACMLRYQKCLDARSQTSTSCLPAPPAESVARRVGWTVRRGVQSLWGSLKPKRLGSQTP
